Laboratory results: PubChem BioAssay AID1224830 (NIAID, 2016)
Shown is a random part of about 18,000 reagents tested. About 2,900 of all reagents (16%) were called active. 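Calls are made per well; low scores hint the gene aids the LPS response, high scores that it dampens it.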 A number with no mark means an inactive call. Repeated entries: four replicate wells of each siRNA pool.

Assay: 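Host factors that control LPS-induced TNF expression in human macrophages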 (primary screen)
Cells: human THP-1 monocytic leukaemia cells, TNF dual-luciferase reporter clone, PMA-differentiated to macrophage-like cells
Knock-down reagent: siRNA pool against human genes, 50 nM
Time to read-out: LPS for 4 h, given about 3 days after siRNA transfection
Challenge: bacterial LPS (TLR4 ligand), 10 ng/ml
Detection: 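Ratio of firefly to renilla light, scaled to the plate median and expressed as a robust z-score per replicate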
Direction: TNF reporter robust z-score: higher = stronger TNF reporter response to LPS
Hit rule: 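a well is active when its z-score exceeds 2.8 or falls below -1.5; control wells carry no call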

Gene | TNF reporter robust z-score
SCGB1C1 (secretoglobin family 1C member 1) | -0.63
SCGB1C1 (secretoglobin family 1C member 1) | -0.81
SCGB1C1 (secretoglobin family 1C member 1) | -0.58
SCGB1C1 (secretoglobin family 1C member 1) | 0.31
C14orf180 (chromosome 14 open reading frame 180) | -1.03
C14orf180 (chromosome 14 open reading frame 180) | -0.74
C14orf180 (chromosome 14 open reading frame 180) | -1.22
C14orf180 (chromosome 14 open reading frame 180) | -0.87
MED30 (mediator complex subunit 30) | -0.01
MED30 (mediator complex subunit 30) | -0.19
MED30 (mediator complex subunit 30) | -0.82
MED30 (mediator complex subunit 30) | 0.08
SHOC1 (shortage in chiasmata 1) | -0.29
SHOC1 (shortage in chiasmata 1) | 0.07
SHOC1 (shortage in chiasmata 1) | -0.04
SHOC1 (shortage in chiasmata 1) | -0.05
TMSB4X (thymosin beta 4 X-linked) | 0.22
TMSB4X (thymosin beta 4 X-linked) | -0.42
TMSB4X (thymosin beta 4 X-linked) | -0.05
TMSB4X (thymosin beta 4 X-linked) | -2 (active)
FLG (filaggrin) | -0.94
FLG (filaggrin) | 0
FLG (filaggrin) | -1.14
FLG (filaggrin) | -0.41
EVC2 (EvC ciliary complex subunit 2) | -0.9
EVC2 (EvC ciliary complex subunit 2) | -0.36
EVC2 (EvC ciliary complex subunit 2) | -1.24
EVC2 (EvC ciliary complex subunit 2) | -0.44
PLEKHA3 (pleckstrin homology domain containing A3) | -0.91
PLEKHA3 (pleckstrin homology domain containing A3) | -0.18
PLEKHA3 (pleckstrin homology domain containing A3) | -0.59
PLEKHA3 (pleckstrin homology domain containing A3) | -1.08
PECR (peroxisomal trans-2-enoyl-CoA reductase) | 0.12
PECR (peroxisomal trans-2-enoyl-CoA reductase) | -0.57
PECR (peroxisomal trans-2-enoyl-CoA reductase) | 0.3
PECR (peroxisomal trans-2-enoyl-CoA reductase) | 1.09
RAB8B (RAB8B, member RAS oncogene family) | -0.7
RAB8B (RAB8B, member RAS oncogene family) | -0.67
RAB8B (RAB8B, member RAS oncogene family) | -1.28
RAB8B (RAB8B, member RAS oncogene family) | -0.47
DCAF8 (DDB1 and CUL4 associated factor 8) | 0.42
DCAF8 (DDB1 and CUL4 associated factor 8) | 0.17
DCAF8 (DDB1 and CUL4 associated factor 8) | 1.1
DCAF8 (DDB1 and CUL4 associated factor 8) | 1.03
SPINK1 (serine peptidase inhibitor Kazal type 1) | 1.03
SPINK1 (serine peptidase inhibitor Kazal type 1) | 0.17
SPINK1 (serine peptidase inhibitor Kazal type 1) | -0.3
SPINK1 (serine peptidase inhibitor Kazal type 1) | 0.36
DAB1 (DAB adaptor protein 1) | 2.71
DAB1 (DAB adaptor protein 1) | 1.46
DAB1 (DAB adaptor protein 1) | 0.88
DAB1 (DAB adaptor protein 1) | -0.63
SEC14L2 (SEC14 like lipid binding 2) | -1.5
SEC14L2 (SEC14 like lipid binding 2) | -1.01
SEC14L2 (SEC14 like lipid binding 2) | -1.29
SEC14L2 (SEC14 like lipid binding 2) | -0.77
RHOB (ras homolog family member B) | -1.44
RHOB (ras homolog family member B) | -1.18
RHOB (ras homolog family member B) | -0.92
RHOB (ras homolog family member B) | -0.45
PLGRKT (plasminogen receptor with a C-terminal lysine) | -0.13
PLGRKT (plasminogen receptor with a C-terminal lysine) | -0.75
PLGRKT (plasminogen receptor with a C-terminal lysine) | -0.08
PLGRKT (plasminogen receptor with a C-terminal lysine) | -0.53
PRKCD (protein kinase C delta) | 2.76
PRKCD (protein kinase C delta) | 2.41
PRKCD (protein kinase C delta) | -0.49
PRKCD (protein kinase C delta) | 0.22
PGAM1 (phosphoglycerate mutase 1) | 0.43
PGAM1 (phosphoglycerate mutase 1) | 1.58
PGAM1 (phosphoglycerate mutase 1) | -0.47
PGAM1 (phosphoglycerate mutase 1) | 0.48
GAPVD1 (GTPase activating protein and VPS9 domains 1) | -1.05
GAPVD1 (GTPase activating protein and VPS9 domains 1) | -0.68
GAPVD1 (GTPase activating protein and VPS9 domains 1) | -0.47
GAPVD1 (GTPase activating protein and VPS9 domains 1) | -0.45
